Results taken from article PMC9571250.

Sequences of proteins named here, by UniProt entry; tags and fusion partners are left off. Residues count along the entry.
UniProt Q13308, 31-1070: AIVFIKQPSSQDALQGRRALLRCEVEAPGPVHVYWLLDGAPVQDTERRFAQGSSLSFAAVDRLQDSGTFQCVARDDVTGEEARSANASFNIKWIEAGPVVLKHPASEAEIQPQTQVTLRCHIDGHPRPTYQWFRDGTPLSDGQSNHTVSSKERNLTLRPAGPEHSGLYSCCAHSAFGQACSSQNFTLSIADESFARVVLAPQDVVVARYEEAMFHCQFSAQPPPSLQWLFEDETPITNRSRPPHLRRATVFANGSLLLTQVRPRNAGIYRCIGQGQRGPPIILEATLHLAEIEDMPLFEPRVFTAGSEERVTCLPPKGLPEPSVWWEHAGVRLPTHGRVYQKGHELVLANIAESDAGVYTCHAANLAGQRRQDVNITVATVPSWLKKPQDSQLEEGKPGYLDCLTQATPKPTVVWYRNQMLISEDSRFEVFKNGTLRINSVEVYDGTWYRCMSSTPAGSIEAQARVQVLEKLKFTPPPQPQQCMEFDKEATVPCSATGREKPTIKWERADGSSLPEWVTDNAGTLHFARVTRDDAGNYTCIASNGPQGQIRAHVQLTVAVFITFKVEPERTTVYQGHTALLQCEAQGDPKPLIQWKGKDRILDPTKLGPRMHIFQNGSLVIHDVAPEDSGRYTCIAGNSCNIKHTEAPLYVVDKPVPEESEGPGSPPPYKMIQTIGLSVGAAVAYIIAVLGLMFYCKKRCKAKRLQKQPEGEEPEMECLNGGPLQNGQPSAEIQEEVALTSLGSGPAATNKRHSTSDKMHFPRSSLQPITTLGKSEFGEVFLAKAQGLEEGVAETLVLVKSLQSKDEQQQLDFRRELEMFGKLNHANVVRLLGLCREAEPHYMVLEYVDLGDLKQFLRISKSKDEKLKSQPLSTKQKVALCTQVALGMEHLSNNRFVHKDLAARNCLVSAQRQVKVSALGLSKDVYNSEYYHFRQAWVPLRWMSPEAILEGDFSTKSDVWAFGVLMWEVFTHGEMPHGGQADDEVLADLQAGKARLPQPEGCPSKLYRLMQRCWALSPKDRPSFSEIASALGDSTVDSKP

Biological target: protein tyrosine kinase 7 (PTK7), on HCT116 cells (UniProt Q13308)
Test: flow cytometry
Settings: Flow cytometry with HCT116 cells, protein on the cell surface, label: 3'-Cy5, folded or branched DNA

Sequence	binding result (positive control, much stronger than random Cy5 library)	binding result (fluorescence comparable to Sgc8, much stronger than random Cy5 library, 5'-terminal phenolic element P (4-hydroxybenzamide of 3-aminopropane-1,2-diol, non-nucleoside))
ATCTAACTGCTGCGCCGCCGGGAAAATACTGTACGGTTAGA [Sgc8]	binds	
TTTTTTTTATCTAACTGCTGCGCCGCCGGGAAAATACTGTACGGTTAGA [Sgc8-P]		binds

Construct, isoform or probe ends are uncertain for at least one entry. Where cells or extracts were used, other partners may take part.
